{"source": "the supplement of paper PMC11006884", "note": "The list shows a part of the results, in another mix than the full data. Single values of this set are uncertain."}
{"compound": "COC(=O)/C=C/c1ccccc1 [methyl cinnamate]", "test": "log2 ratio of iodoacetamide-alkyne labeling of the cysteine site, DMSO over compound (competition); higher = stronger covalent engagement of the cysteine by the compound, active = 1 or more", "settings": "500 µM; treatment time 1 h; system: HEK293T cell lysate", "outline": "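Three replicates, each with duplicate channels, were prepared from HEK293T lysate (2 mg/mL) treated with vehicle or electrophile at 500 µM for 1 h at ambient temperature. Iodoacetamide alkyne was then applied for 1 h, and samples were clicked to sCIP-TMT reagents, pooled, trypsin-digested overnight at 37 °C, enriched on streptavidin, acid-eluted and analysed on Orbitrap Eclipse LC-MS/MS with FAIMS, with FragPipe quantification. The log2 competition ratio per cysteine is the mean control-channel divided by the mean compound-channel reporter intensity. Cysteines quantified in only one replicate were left out.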"}
{"target": "SPTBN1 C1284 (UniProt Q01082)", "log2 ratio of iodoacetamide-alkyne labeling": "inactive: 0.122"}
{"target": "CLTC C870 (UniProt Q00610)", "log2 ratio of iodoacetamide-alkyne labeling": "inactive: 0.294"}
{"target": "KIF23 C165 (UniProt Q02241)", "log2 ratio of iodoacetamide-alkyne labeling": "inactive: 0.114"}
{"target": "PFKP C664 (UniProt Q01813)", "log2 ratio of iodoacetamide-alkyne labeling": "inactive: -0.214"}
{"target": "UniProt P62913_C150", "log2 ratio of iodoacetamide-alkyne labeling": "inactive: 0.27"}
{"target": "UniProt P63244_C153", "log2 ratio of iodoacetamide-alkyne labeling": "inactive: 0.245"}
{"target": "REEP5 C18 (UniProt Q00765)", "log2 ratio of iodoacetamide-alkyne labeling": "inactive: 0.2"}
{"target": "HNRNPU C497 (UniProt Q00839)", "log2 ratio of iodoacetamide-alkyne labeling": "inactive: 0.0148"}
{"target": "UniProt P62273_C39", "log2 ratio of iodoacetamide-alkyne labeling": "inactive: 0.139"}
{"target": "UniProt P62753_C12", "log2 ratio of iodoacetamide-alkyne labeling": "inactive: 0.106"}
{"target": "MRPS11 C112 (UniProt P82912)", "log2 ratio of iodoacetamide-alkyne labeling": "inactive: 0.208"}
{"target": "CLTC C1102 (UniProt Q00610)", "log2 ratio of iodoacetamide-alkyne labeling": "inactive: 0.172"}
{"target": "HMGCS1 C224 (UniProt Q01581)", "log2 ratio of iodoacetamide-alkyne labeling": "inactive: 0.11"}
{"target": "EWSR1 C540 (UniProt Q01844)", "log2 ratio of iodoacetamide-alkyne labeling": "inactive: 0.14"}
{"target": "UniProt P78527_C223", "log2 ratio of iodoacetamide-alkyne labeling": "inactive: 0.000955"}
{"target": "GALK2 C407 (UniProt Q01415)", "log2 ratio of iodoacetamide-alkyne labeling": "inactive: 0.293"}
{"target": "MRPS5 C377 (UniProt P82675)", "log2 ratio of iodoacetamide-alkyne labeling": "inactive: 0.078"}
{"target": "PPIA C161 (UniProt P62937)", "log2 ratio of iodoacetamide-alkyne labeling": "inactive: 0.0201"}
{"target": "EXOSC10 C83 (UniProt Q01780)", "log2 ratio of iodoacetamide-alkyne labeling": "inactive: -0.0183"}
{"target": "UniProt P84085_C62", "log2 ratio of iodoacetamide-alkyne labeling": "inactive: 0.211"}
{"target": "UniProt P83731_C6", "log2 ratio of iodoacetamide-alkyne labeling": "inactive: 0.243"}
{"target": "AMPD2 C310 (UniProt Q01433)", "log2 ratio of iodoacetamide-alkyne labeling": "inactive: 0.223"}
{"target": "AMPD2 C107 (UniProt Q01433)", "log2 ratio of iodoacetamide-alkyne labeling": "inactive: 0.241"}
{"target": "UniProt P68363_C25", "log2 ratio of iodoacetamide-alkyne labeling": "inactive: 0.108"}
{"target": "ATP2C1 C49 (UniProt P98194)", "log2 ratio of iodoacetamide-alkyne labeling": "inactive: -0.217"}
{"target": "RPS27A C126 (UniProt P62979)", "log2 ratio of iodoacetamide-alkyne labeling": "inactive: 0.103"}
{"target": "SPTBN1 C624 (UniProt Q01082)", "log2 ratio of iodoacetamide-alkyne labeling": "inactive: 0.129"}
{"target": "CLTC C436 (UniProt Q00610)", "log2 ratio of iodoacetamide-alkyne labeling": "inactive: 0.028"}
{"target": "DR1 C94 (UniProt Q01658)", "log2 ratio of iodoacetamide-alkyne labeling": "inactive: 0.201"}
{"target": "UniProt Q00341_C855", "log2 ratio of iodoacetamide-alkyne labeling": "inactive: 0.379"}
{"target": "PFKP C112 (UniProt Q01813)", "log2 ratio of iodoacetamide-alkyne labeling": "inactive: 0.197"}
{"target": "GSTO1 C90 (UniProt P78417)", "log2 ratio of iodoacetamide-alkyne labeling": "inactive: -0.174"}
{"target": "UniProt P78527_C1455", "log2 ratio of iodoacetamide-alkyne labeling": "inactive: 0.104"}
{"target": "UniProt P68363_C295", "log2 ratio of iodoacetamide-alkyne labeling": "inactive: 0.199"}
{"target": "PAFAH1B2 C188 (UniProt P68402)", "log2 ratio of iodoacetamide-alkyne labeling": "inactive: -0.0663"}
{"target": "UniProt P62873_C25", "log2 ratio of iodoacetamide-alkyne labeling": "inactive: 0.0241"}
{"target": "UniProt P62854_C74", "log2 ratio of iodoacetamide-alkyne labeling": "inactive: 0.22"}
